Results: PMC12125979, “Complete xylan utilization pathway and regulation mechanisms involved in marine algae degradation by cosmopolitan marine and human gut microbiota” (The ISME Journal, 2025)
Construct, isoform or probe ends are uncertain for at least one entry. Weaker means in comparison with the reference protein, sequence or condition of that experiment.

Biological target: XylRA (Vibrio sp. EA2) (UniProt A0A090T8X9)
Experiment: EMSA
Settings: xylose; EMSA: 25 ng biotin-labelled probe, 0.1-0.5 nmol XylRA in 20 uL EMSA/Gel-shift binding buffer (Beyotime), xylose present, room temperature; salt and pH not stated; recombinant protein; protein details: C-terminal His (pET-22b); label: 5'-biotin on strand 1

Row | Sequence | binding result
1 | ACATTTAGCAAATAGGTGACGTTTGGTATCAAAAATCATCGTTGATGGCG (double strand) [PxylT-m1] | binds more weakly
2 | GATCTAATTACCAAATTCGTACATTCAGTTACCAGATAATGTCCTTTCGC (double strand) [Pxyl3] | binds more weakly
